Experimental data from PMC9029106.
No constants are given. Whether binding was seen depends on the method and setting. Binding seen in cells or lysates may run through a third protein. Some entries that bind do so weakly or less than the wild type. For part of these data: Sequences can lack the tags named with a protein.

Amino acid sequences for entries named in this document (tags omitted). A change or cut given only in a name is not applied to a line headed by its entry.
UniProt P46527: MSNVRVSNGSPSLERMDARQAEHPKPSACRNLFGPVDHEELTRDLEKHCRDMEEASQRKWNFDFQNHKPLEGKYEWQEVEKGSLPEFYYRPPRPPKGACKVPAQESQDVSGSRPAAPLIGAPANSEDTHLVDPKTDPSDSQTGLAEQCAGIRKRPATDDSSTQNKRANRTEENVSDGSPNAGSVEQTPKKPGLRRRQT

Tests used:
[1] = biological target: T1, HA-tagged wild-type WT-RNF6 (aa 1-685) (human) (UniProt Q9Y252); experiment: co-IP; WT RNF6 or Myc-tagged SKP2 cotransfected with WT p27 or p27T187A in HEK293 cells; MG132 (10 µM) for 6 h; lysates immunoprecipitated with anti-RNF6 antibody (so in the source); immunoblotted for HA/Myc and p27
T1 sequence: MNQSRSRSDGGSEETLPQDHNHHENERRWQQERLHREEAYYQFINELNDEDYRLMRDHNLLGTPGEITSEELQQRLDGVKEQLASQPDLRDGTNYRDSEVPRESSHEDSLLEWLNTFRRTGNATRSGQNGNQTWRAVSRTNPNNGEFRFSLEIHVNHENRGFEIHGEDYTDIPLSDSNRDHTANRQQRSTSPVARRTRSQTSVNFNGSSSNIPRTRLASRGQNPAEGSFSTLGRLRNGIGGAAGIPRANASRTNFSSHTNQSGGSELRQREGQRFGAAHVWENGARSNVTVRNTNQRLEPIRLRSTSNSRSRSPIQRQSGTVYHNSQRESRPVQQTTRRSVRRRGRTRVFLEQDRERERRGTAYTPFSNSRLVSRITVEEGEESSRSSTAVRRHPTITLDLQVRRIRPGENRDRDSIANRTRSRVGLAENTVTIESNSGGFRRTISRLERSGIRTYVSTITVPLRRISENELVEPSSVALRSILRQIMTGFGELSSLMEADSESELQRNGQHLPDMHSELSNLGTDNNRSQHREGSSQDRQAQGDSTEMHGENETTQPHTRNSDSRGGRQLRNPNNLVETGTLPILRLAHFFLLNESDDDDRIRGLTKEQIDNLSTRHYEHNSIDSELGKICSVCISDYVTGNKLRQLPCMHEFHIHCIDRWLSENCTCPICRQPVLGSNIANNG

[2] = biological target: T1, HA-tagged wild-type WT-RNF6 (aa 1-685) (human); experiment: co-IP; HA-tagged WT RNF6 and mutants cotransfected with p27 in HEK293 cells; MG132 (10 µM) for 6 h; blotted for HA and p27; the precipitating antibody is not told
[3] = biological target: T2, HA-tagged RNF6 ΔRING mutant (aa 1–629) (human) (UniProt Q9Y252); experiment: as above
T2 sequence: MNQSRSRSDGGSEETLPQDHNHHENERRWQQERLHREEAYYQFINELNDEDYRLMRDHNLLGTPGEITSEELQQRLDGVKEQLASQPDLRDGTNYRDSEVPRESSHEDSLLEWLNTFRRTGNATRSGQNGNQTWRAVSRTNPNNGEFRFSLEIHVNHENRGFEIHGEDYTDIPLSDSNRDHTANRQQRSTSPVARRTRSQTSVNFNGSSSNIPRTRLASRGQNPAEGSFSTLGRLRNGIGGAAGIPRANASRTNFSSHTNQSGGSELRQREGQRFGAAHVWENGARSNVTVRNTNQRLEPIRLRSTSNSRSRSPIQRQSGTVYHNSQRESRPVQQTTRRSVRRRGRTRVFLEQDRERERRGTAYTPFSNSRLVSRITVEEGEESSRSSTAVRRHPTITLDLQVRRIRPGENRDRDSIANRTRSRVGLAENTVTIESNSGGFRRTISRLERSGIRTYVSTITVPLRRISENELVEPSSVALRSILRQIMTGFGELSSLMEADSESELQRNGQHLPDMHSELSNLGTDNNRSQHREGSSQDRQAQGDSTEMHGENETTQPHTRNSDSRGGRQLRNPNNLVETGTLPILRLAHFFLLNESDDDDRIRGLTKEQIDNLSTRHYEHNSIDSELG

[4] = biological target: T3, RNF6 (Ring Finger Protein 6) (human (endogenous in LNCaP and CWR-R1)) (UniProt Q9Y252); experiment: co-IP; endogenous proteins; LNCaP and CWR-R1 cells treated with MG132 (10 µM) for 6 h, lysed in IP buffer; immunoprecipitated with anti-RNF6 antibody, immunoblotted for p27; preimmune IgG as control; also after control or RNF6 shRNA
T3 sequence: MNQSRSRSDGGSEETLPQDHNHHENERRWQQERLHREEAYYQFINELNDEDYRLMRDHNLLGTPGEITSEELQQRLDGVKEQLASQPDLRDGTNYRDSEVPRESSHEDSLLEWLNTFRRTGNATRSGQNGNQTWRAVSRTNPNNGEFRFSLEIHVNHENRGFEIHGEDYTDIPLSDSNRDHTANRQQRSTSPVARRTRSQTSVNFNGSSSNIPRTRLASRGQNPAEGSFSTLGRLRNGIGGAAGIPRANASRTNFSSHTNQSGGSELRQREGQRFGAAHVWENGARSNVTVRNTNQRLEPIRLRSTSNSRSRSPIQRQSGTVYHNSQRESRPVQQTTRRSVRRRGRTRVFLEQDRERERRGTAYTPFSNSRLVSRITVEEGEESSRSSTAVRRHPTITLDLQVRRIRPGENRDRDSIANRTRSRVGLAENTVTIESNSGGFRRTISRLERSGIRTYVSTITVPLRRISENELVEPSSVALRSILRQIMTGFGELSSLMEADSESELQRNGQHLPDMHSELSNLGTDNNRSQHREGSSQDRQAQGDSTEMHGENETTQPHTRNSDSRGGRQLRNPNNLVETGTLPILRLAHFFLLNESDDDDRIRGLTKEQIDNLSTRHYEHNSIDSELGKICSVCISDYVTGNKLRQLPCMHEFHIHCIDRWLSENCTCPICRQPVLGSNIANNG

GST-p27 = GST-p27 (UniProt P46527); experiment: pull-down; LNCaP cells transfected with GST or GST-p27 alone or with RNF6; after 48 h lysates prepared, GST captured with GSH beads, immunoblotted for GST and RNF6

WT p27 (from UniProt P46527 1-198)
binding [1]: binds
binding [2]: binds
binding [3]: binds

p27 (Kip1) (from UniProt P46527 1-198)
binding [4]: binds

p27T187A phosphomutant (from UniProt P46527 1-198)
binding [1]: binds

B1: RNF6 (protein, UniProt Q9Y252 1-685)
chain: MNQSRSRSDGGSEETLPQDHNHHENERRWQQERLHREEAYYQFINELNDEDYRLMRDHNLLGTPGEITSEELQQRLDGVKEQLASQPDLRDGTNYRDSEVPRESSHEDSLLEWLNTFRRTGNATRSGQNGNQTWRAVSRTNPNNGEFRFSLEIHVNHENRGFEIHGEDYTDIPLSDSNRDHTANRQQRSTSPVARRTRSQTSVNFNGSSSNIPRTRLASRGQNPAEGSFSTLGRLRNGIGGAAGIPRANASRTNFSSHTNQSGGSELRQREGQRFGAAHVWENGARSNVTVRNTNQRLEPIRLRSTSNSRSRSPIQRQSGTVYHNSQRESRPVQQTTRRSVRRRGRTRVFLEQDRERERRGTAYTPFSNSRLVSRITVEEGEESSRSSTAVRRHPTITLDLQVRRIRPGENRDRDSIANRTRSRVGLAENTVTIESNSGGFRRTISRLERSGIRTYVSTITVPLRRISENELVEPSSVALRSILRQIMTGFGELSSLMEADSESELQRNGQHLPDMHSELSNLGTDNNRSQHREGSSQDRQAQGDSTEMHGENETTQPHTRNSDSRGGRQLRNPNNLVETGTLPILRLAHFFLLNESDDDDRIRGLTKEQIDNLSTRHYEHNSIDSELGKICSVCISDYVTGNKLRQLPCMHEFHIHCIDRWLSENCTCPICRQPVLGSNIANNG
binding (GST-p27): binds
